Assay results from PubChem BioAssay AID2685 (National Center for Advancing Translational Sciences (NCATS), 2010).
The list shows a part of the results. The main result of the screen is listed elsewhere. These columns were measured beside it and carry no call. Most of these compounds were active or inconclusive in the main read-out, so they are no random draw. The note in brackets gives the kind of curve behind each potency; many fits are weak.

Experiment: qHTS Assay for Lipid Storage Modulators in Drosophila S3 Cells;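 on cell number change: cells counted by Cell Tracker Red CMTPX staining in the red channel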
Conditions: BODIPY lipid droplet fluorescence, 18-24 h; for cell number change: measured here: cell count max response, cells fed with added oleic acid
In short: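 Drosophila S3 cells loaded with oleic acid (400 uM, as added) and compounds at several concentrations; lipid droplets imaged by 488-nm laser-scanning cytometry, 500–530 nm intensity and object ratio to cell channel. Percent activity normalized to 20 uM Triacsin C.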

[1] = measured here: lipid fluorescence (Fed channel) AC50, cells fed with added oleic acid
[2] = measured here: cell number channel AC50, cells fed with added oleic acid

Structure (SMILES)	cell number change [%]	AC50 [1]	AC50 [2]
CC(=O)NS(=O)(=O)c1ccc(NC(=O)c2ccc(S(=O)(=O)N3CCCC3)cc2)cc1	-22.1	18.4 µM [falling, single point]	
CC(=O)N1CCc2ccc(S(=O)(=O)Nc3ccccc3Cl)cc21	-24.6	0.0058 µM [falling, full curve]	0.0058 µM [falling, full curve, poor fit]
Cc1ccc2nc(C)c(Cl)c(=O)n2c1	8.5	6.51 µM [rising, single point]	
CC(=O)Nc1ccc(-n2nnnc2SCC(=O)NC2CCCC2)cc1	5.83	16.4 µM [falling, single point]	
O=C(c1cccs1)n1nc(-c2ccccc2)nc1NCc1ccc(F)cc1		2.91 µM [rising, partial curve, poor fit]	0.461 µM [rising, partial curve, poor fit]
CCC(C)(C)NC(=O)Nc1cc(Cl)ccc1OC	38.3	0.58 µM [falling, single point]	10.3 µM [rising, single point]
COc1ccc(C(=O)N(CC2CCCO2)C(C(=O)NCCC(C)C)c2ccc(C)cc2)cc1OC (stereo unspecified)	-4.03		0.116 µM [falling, partial curve, poor fit]
Cc1ccc(C)c(N2CCN(C(=O)c3cc(S(=O)(=O)N4CCCC4)cn3C)CC2)c1	10.1	29.1 µM [falling, single point]	
O=C(CSc1nnc(C2CCCCC2)o1)Nc1ccccc1Cl	12.6	29.1 µM [rising, partial curve, poor fit]	
Cc1nc2c(C#N)cnn2c2c1CCN2CC1CCCO1 (stereo unspecified)	17.2	29.1 µM [rising, partial curve]	
CC(=O)Nc1ccc(NC(=O)C(Sc2ccccc2)c2ccccc2)cc1 (stereo unspecified)	26.1	32.6 µM [falling, single point]	
CCCN1CCN(c2ncnc3scc(C4COc5ccccc5O4)c23)CC1 (stereo unspecified)	-9.54	23.1 µM [falling, single point]	
Cc1nc(COc2cc3oc(=O)cc(C)c3cc2Cl)cs1	-4.5		
Cc1cc(C)cc(N2CN=c3s/c(=C\c4ccco4)c(=O)n3C2)c1	5.17		
COCCn1nc2cc(C(=O)NCc3cc(C(F)(F)F)cc(C(F)(F)F)c3)ccc2c1OC	-9.87		
CCCN(CCC)c1nc(N)nc(-c2cc(Cl)ccc2OC)n1	0.13	3.66 µM [falling, partial curve]	
COc1ccc(S(=O)(=O)NC(C)C(=O)NCc2ccncc2)cc1OC (stereo unspecified)	18.9	29.1 µM [rising, single point]	
Brc1cccc(C2Nc3cccc4cccc(c34)N2)c1	-23.8	2.91 µM [rising, single point]	
COc1ccc(C(=O)n2nc(C)c(Br)c2C)cc1OC	2.13	1.84 µM [falling, partial curve]	
COc1ccc(NC(=O)c2ccccc2OCc2ccc(F)cc2)c(OC)c1	5	0.116 µM [rising, partial curve, poor fit]	

Structure (SMILES)	cell number change [%]	AC50 [1]	AC50 [2]
CCN1CCN(CC(=O)N/N=C/c2cc(Br)cs2)CC1	3.89		
CC1(C)C(=O)C2(C(=O)NCc3ccccc3)CCC1C2 (stereo unspecified)	-0.86	0.0517 µM [falling, full curve, poor fit]	
Cc1ccc(NC(=S)NCc2ccccc2Cl)c(C)c1	1.55		
CCN1C(=O)C(CC(=O)Nc2ccc(F)cc2)N(CCCN2CCN(c3ccc(F)cc3)CC2)C1=S (stereo unspecified)	-64.3	29.1 µM [falling, single point]	29.1 µM [falling, single point]
Cn1c(CNC(=O)CNC(=O)c2ccccc2)cc(=O)n(C)c1=O	16.7	20.6 µM [rising, single point]	
CCNc1nc(C23CC4CC(CC(C4)C2)C3)cs1	-49.4	32.6 µM [falling, partial curve, poor fit]	23.1 µM [falling, partial curve]
CC[n+]1cc(-c2ccccc2)nc(N2CCOCC2)n1	1.73	5.8 µM [rising, single point]	
COC(=O)c1cc(OC)c(OC)cc1NC(=O)c1ccc(C)cc1	17.4		
CCN(CC(=O)NCc1ccc(F)cc1)S(=O)(=O)c1ccc(C)cc1	6.97		
CCOC(=O)NC1(C(F)(F)F)NC(=O)N(C2CCCCC2)C1=O (stereo unspecified)	-87.5	23.1 µM [falling, single point]	18.4 µM [falling, single point]
CCOC(=O)[C@H]1[C@H]2COc3ccc(Cl)cc3[C@@H]2N2C(=O)c3cc(Br)ccc3NC(=O)[C@@]12C	-19	5.8 µM [falling, single point]	3.66 µM [falling, single point]
COc1ccc(NC(=O)N2C3CCCC2CC(NC(=O)C2CC2)C3)cc1 (stereo unspecified)	14.2	1.16 µM [rising, single point]	
COc1ccc(-c2csc(N(CCCN(C)C)C(=O)c3ccccc3F)n2)cc1	-20.1	29.1 µM [falling, single point]	
OCCCn1c(-c2ccccc2)nc(=S)c2c1CCCC2	-36.5	18.4 µM [rising, partial curve, poor fit]	23.1 µM [falling, single point]
CCOC(=O)CNC(=O)Cn1cnc2c(nnn2-c2ccc(C)cc2)c1=O	-4.03	6.51 µM [falling, single point]	
O=C(O)CNC(=O)CC12CC3CC(CC(C3)C1)C2	-22.7	0.82 µM [falling, full curve, poor fit]	
COC(=O)C(Cc1ccccc1)NC(=S)NC(=O)c1ccccc1 (stereo unspecified)	39.4	29.1 µM [rising, single point]	4.61 µM [rising, single point]
O=c1c2ccccc2nc(-c2ccco2)n1CCCn1ccnc1	20.7	11.6 µM [rising, partial curve]	
COc1ccc(CCCC(=O)Nc2ccc(F)cc2)cc1	28.8	29.1 µM [rising, single point]	
Nc1nc(NC(=O)CCC(=O)O)nn1-c1ccccc1	-12.4	3.66 µM [falling, single point]	6.51 µM [falling, single point]

Structure (SMILES)	cell number change [%]	AC50 [1]	AC50 [2]
C=C(C)Cn1c(=O)c(NC(=O)c2ccccc2)c2n(c1=S)CCC2	13.7	0.58 µM [rising, full curve, poor fit]	
N#Cc1cc(-c2ccccc2)nn1-c1ccccc1		1.03 µM [rising, full curve]	6.51 µM [rising, single point]
CCOc1ccc(CN2CCNC(=O)C2CC(=O)NC2CCCCCC2)cc1 (stereo unspecified)	35.6		32.6 µM [rising, single point]
CCOC(=O)C1CCN(C(=O)CCCCn2c(=O)[nH]c3ccccc3c2=O)CC1	-28.4	29.1 µM [falling, partial curve, poor fit]	
COc1cccc(CNc2nc(SC)ncc2CO)c1	1.92	7.31 µM [rising, partial curve]	
COc1ccc(-c2nc(CN3CCC(C(=O)N4CCc5ccccc54)CC3)c(C)o2)cc1OC	4.64		
CC1(C(=O)O)C=CC2(CCCCC2)N1C(=O)c1ccccc1 (stereo unspecified)	-38.9	2.06 µM [rising, full curve]	14.6 µM [falling, partial curve]
O=C(CSc1nnc(NC(=O)C2CCC2)s1)Nc1ccccc1Br	19.6	6.51 µM [rising, single point]	
CC(=O)c1ccccc1NS(C)(=O)=O	19.9	11.6 µM [rising, partial curve]	
COCCCn1cc(C(=O)c2cc(OC)ccc2OCC(=O)Nc2cc(C)on2)cc(C#N)c1=O	8.18	11.6 µM [rising, partial curve]	
CN1CCN(S(=O)(=O)c2ccc3c(c2)OCCO3)CC1	-52.7	6.51 µM [falling, single point]	1.46 µM [falling, full curve]
COc1ccc(NC(=O)c2cccc(S(=O)(=O)N(C)c3ccccc3)c2)cn1	-29.1		7.31 µM [falling, partial curve]
O=C1Nc2ccccc2C1(O)Cc1ccncc1 (stereo unspecified)		14.6 µM [falling, partial curve]	
COc1ccc(OC)c(NC(=O)COC(=O)c2c3c(nc4ccccc24)CCCC3)c1	23.5	1.64 µM [rising, partial curve]	4.61 µM [rising, full curve, poor fit]
Cc1ccc(S(=O)(=O)NCCCN2CCCC2)cc1		29.1 µM [rising, single point]	
O=C(CSc1nc2ncccc2[nH]1)Nc1ccccc1-c1ccccc1	-12.5	29.1 µM [falling, single point]	
O=C(/N=C1\NC(=O)C(F)(C(F)(F)F)S1)NC1CCCCC1 (stereo unspecified)			1.46 µM [falling, partial curve, poor fit]
CCOc1ccc(N(C(=O)CNC(=O)c2ccco2)C(C(=O)NCC2CCCO2)c2ccccc2)cc1 (stereo unspecified)	-7.69		
O=C(NC1(C(F)(F)F)NC(=O)N(C2CCCCC2)C1=O)c1ccco1 (stereo unspecified)	-3.51	0.731 µM [falling, single point]	
CC1CCCCC12NC(=O)N(CC(=O)NCCc1ccccn1)C2=O (stereo unspecified)	0.182	0.731 µM [falling, partial curve, poor fit]	0.164 µM [falling, full curve, poor fit]

Eleven of the compounds above, in markdown:

| Structure (SMILES) | cell number change [%] | AC50 [1] | AC50 [2] |
| --- | --- | --- | --- |
| CCOc1ccc(CN2CCNC(=O)C2CC(=O)NC2CCCCCC2)cc1 (stereo unspecified) | 35.6 |  | 32.6 µM [rising, single point] |
| CCOC(=O)C1CCN(C(=O)CCCCn2c(=O)[nH]c3ccccc3c2=O)CC1 | -28.4 | 29.1 µM [falling, partial curve, poor fit] |  |
| COc1cccc(CNc2nc(SC)ncc2CO)c1 | 1.92 | 7.31 µM [rising, partial curve] |  |
| COc1ccc(-c2nc(CN3CCC(C(=O)N4CCc5ccccc54)CC3)c(C)o2)cc1OC | 4.64 |  |  |
| CC1(C(=O)O)C=CC2(CCCCC2)N1C(=O)c1ccccc1 (stereo unspecified) | -38.9 | 2.06 µM [rising, full curve] | 14.6 µM [falling, partial curve] |
| O=C(CSc1nnc(NC(=O)C2CCC2)s1)Nc1ccccc1Br | 19.6 | 6.51 µM [rising, single point] |  |
| CC(=O)c1ccccc1NS(C)(=O)=O | 19.9 | 11.6 µM [rising, partial curve] |  |
| COCCCn1cc(C(=O)c2cc(OC)ccc2OCC(=O)Nc2cc(C)on2)cc(C#N)c1=O | 8.18 | 11.6 µM [rising, partial curve] |  |
| CN1CCN(S(=O)(=O)c2ccc3c(c2)OCCO3)CC1 | -52.7 | 6.51 µM [falling, single point] | 1.46 µM [falling, full curve] |
| COc1ccc(NC(=O)c2cccc(S(=O)(=O)N(C)c3ccccc3)c2)cn1 | -29.1 |  | 7.31 µM [falling, partial curve] |
| O=C1Nc2ccccc2C1(O)Cc1ccncc1 (stereo unspecified) |  | 14.6 µM [falling, partial curve] |  |
